# Results reported in patent US6974816B2, “Combination for the treatment of endothelial damage” (Licentia Ltd., priority 2001, dated 2005).
# Assay: Serum lipid profile
# Assay type: in vivo, New Zealand White rabbits
# Settings: mean ± SEM
structure (smiles),measurement,setting,value
"Cc1ccc(NC(=O)c2ccc(CN3CCN(C)CC3)cc2)cc1Nc1nccc(-c2cccnc2)n1 [STI571, N-{5-[4-(4-methyl-piperazino-methyl)-benzoylamido]-2-methylphenyl}-4-(3-pyridyl)-2-pyrimidine-amine]",Lipids: HDL,3-week endpoint,0.69 ± 0.11 mM
same,Lipids: LDL,3-week endpoint,10.2 ± 2.3 mM
same,Lipids: S-Chol,"3-week endpoint, serum cholesterol",11.7 ± 2.4 mM
same,Lipids: S-TG,"3-week endpoint, serum triglyceride",1.8 ± 0.3 mM
same,Lipids: HDL,6-week end point,0.53 ± 0.05 mM
same,Lipids: LDL,6-week end point,14.5 ± 3.2 mM
same,Lipids: S-Chol,6-week end point,16.5 ± 3.5 mM
same,Lipids: S-TG,6-week end point,3.3 ± 0.6 mM
